These results are taken from PMC10499325.

The chains behind the UniProt entries cited, without tags or fusion partners. Where a name states a change or a piece, a line headed by the entry shows the natural chain unless it says otherwise.
UniProt Q460N5: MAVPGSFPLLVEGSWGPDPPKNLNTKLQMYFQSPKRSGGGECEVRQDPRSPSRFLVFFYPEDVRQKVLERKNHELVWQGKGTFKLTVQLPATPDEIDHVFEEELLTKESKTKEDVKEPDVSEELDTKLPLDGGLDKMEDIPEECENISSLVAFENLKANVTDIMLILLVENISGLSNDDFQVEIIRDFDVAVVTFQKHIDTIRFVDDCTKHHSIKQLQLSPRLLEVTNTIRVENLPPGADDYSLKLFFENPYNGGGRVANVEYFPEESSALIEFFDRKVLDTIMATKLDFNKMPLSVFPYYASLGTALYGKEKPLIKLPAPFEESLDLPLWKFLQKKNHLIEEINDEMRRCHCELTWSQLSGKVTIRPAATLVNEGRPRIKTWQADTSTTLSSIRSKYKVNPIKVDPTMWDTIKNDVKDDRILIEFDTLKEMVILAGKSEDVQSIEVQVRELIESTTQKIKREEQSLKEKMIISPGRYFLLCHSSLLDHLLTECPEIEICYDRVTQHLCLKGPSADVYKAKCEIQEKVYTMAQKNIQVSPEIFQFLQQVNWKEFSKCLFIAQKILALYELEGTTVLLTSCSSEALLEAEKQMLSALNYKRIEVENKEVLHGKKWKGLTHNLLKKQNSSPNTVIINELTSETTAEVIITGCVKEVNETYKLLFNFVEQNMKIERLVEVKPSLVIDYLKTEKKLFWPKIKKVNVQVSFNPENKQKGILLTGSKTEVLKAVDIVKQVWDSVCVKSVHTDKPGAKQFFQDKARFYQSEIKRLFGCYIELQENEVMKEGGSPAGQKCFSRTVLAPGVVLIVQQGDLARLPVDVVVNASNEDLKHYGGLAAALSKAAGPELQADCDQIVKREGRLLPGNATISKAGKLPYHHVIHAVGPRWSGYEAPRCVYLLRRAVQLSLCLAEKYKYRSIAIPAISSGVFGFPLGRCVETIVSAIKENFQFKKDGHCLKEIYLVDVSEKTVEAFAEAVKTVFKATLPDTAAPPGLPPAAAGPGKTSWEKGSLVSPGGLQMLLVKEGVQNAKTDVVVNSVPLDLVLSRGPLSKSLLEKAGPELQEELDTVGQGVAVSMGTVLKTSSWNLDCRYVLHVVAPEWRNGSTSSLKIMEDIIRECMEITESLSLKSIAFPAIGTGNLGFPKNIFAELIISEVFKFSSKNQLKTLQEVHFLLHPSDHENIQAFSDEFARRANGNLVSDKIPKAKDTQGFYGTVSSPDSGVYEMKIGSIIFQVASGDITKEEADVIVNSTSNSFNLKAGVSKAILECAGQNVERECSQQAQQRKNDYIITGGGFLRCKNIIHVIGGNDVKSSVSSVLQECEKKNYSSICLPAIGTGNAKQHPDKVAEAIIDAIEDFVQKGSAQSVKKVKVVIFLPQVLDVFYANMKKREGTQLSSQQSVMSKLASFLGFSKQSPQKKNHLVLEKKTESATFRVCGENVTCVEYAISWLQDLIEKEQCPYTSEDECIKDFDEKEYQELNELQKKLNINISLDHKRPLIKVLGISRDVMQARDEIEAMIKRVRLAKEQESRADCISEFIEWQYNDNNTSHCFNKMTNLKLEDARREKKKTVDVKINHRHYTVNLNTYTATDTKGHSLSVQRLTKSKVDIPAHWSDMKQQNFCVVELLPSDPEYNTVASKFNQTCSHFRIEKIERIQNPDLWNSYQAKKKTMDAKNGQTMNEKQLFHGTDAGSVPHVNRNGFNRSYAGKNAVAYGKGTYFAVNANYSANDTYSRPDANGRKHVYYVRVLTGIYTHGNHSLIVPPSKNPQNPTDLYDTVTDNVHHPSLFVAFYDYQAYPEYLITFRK
UniProt Q92769: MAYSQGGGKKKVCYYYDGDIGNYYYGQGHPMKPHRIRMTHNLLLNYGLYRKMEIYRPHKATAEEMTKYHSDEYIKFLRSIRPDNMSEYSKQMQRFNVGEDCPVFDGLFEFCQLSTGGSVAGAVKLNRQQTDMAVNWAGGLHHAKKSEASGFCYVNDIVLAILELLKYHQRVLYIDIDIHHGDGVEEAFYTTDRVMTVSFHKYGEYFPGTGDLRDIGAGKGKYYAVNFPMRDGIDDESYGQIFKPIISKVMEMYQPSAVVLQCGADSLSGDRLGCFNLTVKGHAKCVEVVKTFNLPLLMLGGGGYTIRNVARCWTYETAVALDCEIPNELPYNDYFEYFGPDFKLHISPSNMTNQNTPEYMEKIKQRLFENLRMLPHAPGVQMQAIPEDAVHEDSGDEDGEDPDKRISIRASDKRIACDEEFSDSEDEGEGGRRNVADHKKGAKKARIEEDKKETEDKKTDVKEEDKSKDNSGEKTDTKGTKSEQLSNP

In assay [1] the target is YFP-tagged full-length PARP14 G832E MD1 mutant (human) (UniProt Q460N5). As to the kind of experiment: co-IP; GFP-Trap magnetic agarose beads on lysates of 293T cells transfected with YFP-PARP14 plasmids; Triton X-100 lysis buffer (50 mM tris-HCl pH 8.0, 100 mM NaCl, 1% Triton X-100) with 5 mM MgCl2, Benzonase, olaparib and PARGi; 2 hours at 4°C; five washes with 800 mM NaCl buffer; Western blotting of the partners. Background: Immunoblotting shows a protein as a band on a membrane.

Assay [2] addresses YFP-tagged full-length PARP14 wild type (human) (UniProt Q460N5). Described as above.

No constants are given. Whether binding was seen depends on the method and setting. Binding seen in cells or lysates may run through a third protein.

For HDAC2 (from UniProt Q92769 1-488), the binding result in assay [1] and in assay [2] was “no binding” each time.
